Most values lie at the floor of the assay. Slopes are relative: functional sequences can read slightly below zero.
system: Saccharomyces cerevisiae PS128 hsf1 delta, HSF1(1-493) fusion; experiment: growth estimate (transactivation domain function in HSF1 fusion, heat-shock survival) (a.u. (slope of normalised read count over time)); higher = stronger growth at 37°C, i.e. more transactivation activity; settings: library: random library

Substance	growth estimate
LCPTGQQYIFNPHY	< -0.25
GGPSVCEPDDGNAVLPKISA	-0.246
TGMRYTWAFRLSGSVVPTSV	< -0.25
GTDCRFQNLLASCVG	< -0.25
NSN	< -0.25
VQMLPVAVKGDPPGALNTRR	< -0.25
IGPVGCGSSRIDA	< -0.25
QFRGAGVETRAHLAYELHV	< -0.25
LSGVTH	< -0.25
EGGLTPG	< -0.25
ATSSKARQGALKVRL	< -0.25
YCPKVCHAALSLRAHRSTKA	< -0.25
TSVIDQMAYAS	< -0.25
RNYNWGYKWTFHSCFSRCVS	< -0.25
HELRYCCGRAGLYEYF	-0.245
YKPSCFKISFPTTPLWHNQA	< -0.25
SVQSALREMRRLIHINPVND	0.161
TNCDYLASGEDDRENHLLMR	< -0.25
DDWPIRAWRIAGC	< -0.25
HRSPLVDHQSSEERGKQVGR	< -0.25
CTASLALKKSRDTLEGLSLV	< -0.25
STGSPGQASHTEGEQRGYRL	< -0.25
QSVC	< -0.25
RIEERF	< -0.25
IKSANGSVVVLGIARGITQC	< -0.25

Substance	growth estimate
SRVPSIDKFR	< -0.25
TVEKPITWVLDEK	< -0.25
QSWGKPGPKACIGSTDS	< -0.25
LVYMYPQTGI	< -0.25
TGGNVCLTSHHFSKDRLSAL	< -0.25
DVRITSIGARSQ	< -0.25
YHNCPLTEGSQKVVSRASSS	< -0.25
CPNAVSS	< -0.25
LGSVVYNPRW	< -0.25
FQIAVGCSITARQRKL	< -0.25
RKNEGIPCSLRHVTRLMGFL	-0.243
PNWRSGIFNRTGGKKDTGFV	< -0.25
LGSLTARA	< -0.25
GPLVGS	< -0.25
TRASARVRVSE	< -0.25
HFAGLAWGLVP	< -0.25
RQVTAGSPRTYSH	< -0.25
AEYPGGKGTSNKESCHQPTI	< -0.25
MCVEADVGYVRRVLSLPRTR	< -0.25
SPRSLVECNARYTRSGLDAS	< -0.25
QMSEGYCTATFTWVTWC	-0.239
WQHESLTRVVRYRV	< -0.25
VYYLDSELIVSIYTKTGRRT	< -0.25
YLVTLLPGGALARIVQRPS	< -0.25
LSRKLNSRTTLGSSVCSPRL	< -0.25

3 entries from above, with each value named.
DVRITSIGARSQ
  growth estimate = < -0.25
LGSLTARA
  growth estimate = < -0.25
TRASARVRVSE
  growth estimate = < -0.25

Part of the list above, bar-delimited:
Substance | growth estimate
PNWRSGIFNRTGGKKDTGFV | < -0.25
SPRSLVECNARYTRSGLDAS | < -0.25
LSRKLNSRTTLGSSVCSPRL | < -0.25

Next part:

Substance	growth estimate
CVTTPLHTFIVR	< -0.25
FPRRQLFIVLVWTSVDMATP	< -0.25
QLTNHILNQPT	< -0.25
GLPSSTGIYRHWLAKHQPMI	< -0.25
RVRDLKRRGD	< -0.25
PCTRNVDQ	< -0.25
LSEGSGLMANEWVGVPR	< -0.25
GPGRTFGRPLSGGMG	< -0.25
SPAAFRPRRYG	< -0.25
WQLALGV	< -0.25
GVDLVYSAMRGVRPGLLFMA	< -0.25
CLQCHYD	< -0.25
QFSS	< -0.25
TLGVNLYLVIF	< -0.25
VMSGLKFHMCVLATEARARI	< -0.25
QNDWSVSRARFYWNIFSHRC	< -0.25
DSTRAGSLYPVVSRNVMEDA	< -0.25
ARAPDYPDQVDRT	< -0.25
WAPLERWDKDPD	< -0.25
LKK	< -0.25
LDNPTSTQWAFSTDEGVQRW	-0.152
RSGGHRSPVSRWRVGIDRDV	< -0.25
FLVFKVTLECIYHYSVFHLE	< -0.25
PNATE	< -0.25
FEVVNG	< -0.25

Substance	growth estimate
VVSAASVNCRVRDLYRQLGQ	< -0.25
LLGPSLW	< -0.25
GVSSSVEARVVANGQGAPGQ	< -0.25
SVSY	< -0.25
DADEGRFEPPSRLS	< -0.25
FTL	-0.231
VQLNSSVYCSGIQVCKLSVH	< -0.25
GPQRYLERWVPTKVRRVANY	< -0.25
AFAECAASGADGNTKF	< -0.25
SGRTIGH	< -0.25
RFCRWQRRSNSRVHISRAAT	< -0.25
WPRYQYARVYTPRVADCKRS	< -0.25
LLSAGRA	< -0.25
GDLGMPKAYRLGSSAME	< -0.25
GYPSISRFHTTADRLITIRG	< -0.25
GGLERFQNSVCSTSSIARVM	< -0.25
LCEWGSL	0.532
GLGNVC	-0.25
VLKGSGYSPRFEGQVELAGV	< -0.25
LRLSNSATCGYV	< -0.25
FGVCP	< -0.25
RCKRT	< -0.25
EPKRVHISQIPISVRRASLR	< -0.25
IESHIKGVRV	< -0.25
DHMQ	< -0.25

Substance	growth estimate
RPRSHYVIQAHAYLR	< -0.25
EFRSGTFQSGVGHSISDHWI	-0.159
LNRGLWVWCTPAPPGFHPSP	< -0.25
WRAALGGHCNSYG	< -0.25
GLRWRFSARDFRTFYM	< -0.25
SSDV	< -0.25
SKSRGLRAEYNRFGVGANAR	< -0.25
LHGTVMTLERGPAAYL	< -0.25
QDVACEL	< -0.25
RAITQQPL	< -0.25
TATETRVYEWAN	-0.229
MIAMFINTRHRDVANLSLSQ	< -0.25
VITISHNCSQIRIRRVNLYS	< -0.25
TVLRVSHHLGCTAL	< -0.25
SEQRKRVRVRPRHERNAGSR	< -0.25
SGRPGG	< -0.25
VPKSGEVGLSKPGGGVDDKG	< -0.25
KKSLLSVLRTGTFKLQRVGL	< -0.25
EKRRYSVCALCL	< -0.25
RGWSNP	< -0.25
EDLLPKWPAFATIEEALATI	< -0.25
CATGD	< -0.25
LKPPCITGGGNLCRIDIALA	< -0.25
GGGVIGCGKKGTPRHSVYHD	< -0.25
CPKAFECG	< -0.25

Substance	growth estimate
SEGAPSSDSVPTLLHSCSTS	-0.25
RGSGGLIVRRIGYASTMSPY	< -0.25
VGSLLDGIWLARGH	< -0.25
VEFRLTPRRRVAILPTSSRH	< -0.25
TMPSPMFSLEVATKRSRGLF	< -0.25
GAYS	< -0.25
VDWRWTPTVLADRQATYSGK	< -0.25
RMDNVSKRADKS	0.146
PTKRAERPEPSNLLALAGGT	< -0.25
VVRVAYEGFRTIVFRDSRNQ	< -0.25
VALTERYWAAPRCLPVPFLL	< -0.25
CVISTAASGLTGVKAV	< -0.25
RLGYQNIQE	< -0.25
KTWHSSRRIA	< -0.25
AFRQTRVSRR	< -0.25
VGNQLGI	< -0.25
DISSLPKVHQGPVRT	< -0.25
PSTQSCGYLKREDIRLSMPW	< -0.25
IPPTDVSPALHE	< -0.25
SPWWAD	< -0.25
IVRLYCCIVGEMLRTMYRNR	< -0.25

From the supplement of paper PMC5949888
